Results are given in words; binding and its absence hold for the method and conditions named. In cells and extracts the contact can be indirect. Here binding means that the protein was enriched with, or labelled near, the bait; the list need not be complete. Sequences can lack the tags named with a protein.
T1: HA-EhRacM (EhRacM tagged with HA at the N-terminus) (Entamoeba histolytica) (UniProt C4M9S3)
T1 sequence: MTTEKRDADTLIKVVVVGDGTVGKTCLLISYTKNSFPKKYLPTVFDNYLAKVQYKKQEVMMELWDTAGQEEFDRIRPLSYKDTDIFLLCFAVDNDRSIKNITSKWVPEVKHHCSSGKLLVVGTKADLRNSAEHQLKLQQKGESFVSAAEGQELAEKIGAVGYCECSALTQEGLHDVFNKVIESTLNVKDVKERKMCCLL

The chains behind the UniProt entries cited, without tags or fusion partners. Where a name states a change or a piece, a line headed by the entry shows the natural chain unless it says otherwise.
UniProt C4M3R0: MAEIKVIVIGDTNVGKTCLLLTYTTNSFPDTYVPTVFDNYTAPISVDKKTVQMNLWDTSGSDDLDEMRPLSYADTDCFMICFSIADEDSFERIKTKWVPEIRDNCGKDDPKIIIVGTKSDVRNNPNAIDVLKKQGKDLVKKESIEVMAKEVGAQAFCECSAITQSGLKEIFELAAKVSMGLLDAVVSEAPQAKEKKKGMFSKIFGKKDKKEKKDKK
UniProt Q24814: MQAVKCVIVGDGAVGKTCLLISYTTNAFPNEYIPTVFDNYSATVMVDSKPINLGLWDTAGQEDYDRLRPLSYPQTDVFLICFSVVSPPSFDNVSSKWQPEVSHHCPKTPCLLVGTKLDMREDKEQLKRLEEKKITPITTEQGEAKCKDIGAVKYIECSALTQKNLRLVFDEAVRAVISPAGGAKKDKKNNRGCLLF
UniProt C4LX90: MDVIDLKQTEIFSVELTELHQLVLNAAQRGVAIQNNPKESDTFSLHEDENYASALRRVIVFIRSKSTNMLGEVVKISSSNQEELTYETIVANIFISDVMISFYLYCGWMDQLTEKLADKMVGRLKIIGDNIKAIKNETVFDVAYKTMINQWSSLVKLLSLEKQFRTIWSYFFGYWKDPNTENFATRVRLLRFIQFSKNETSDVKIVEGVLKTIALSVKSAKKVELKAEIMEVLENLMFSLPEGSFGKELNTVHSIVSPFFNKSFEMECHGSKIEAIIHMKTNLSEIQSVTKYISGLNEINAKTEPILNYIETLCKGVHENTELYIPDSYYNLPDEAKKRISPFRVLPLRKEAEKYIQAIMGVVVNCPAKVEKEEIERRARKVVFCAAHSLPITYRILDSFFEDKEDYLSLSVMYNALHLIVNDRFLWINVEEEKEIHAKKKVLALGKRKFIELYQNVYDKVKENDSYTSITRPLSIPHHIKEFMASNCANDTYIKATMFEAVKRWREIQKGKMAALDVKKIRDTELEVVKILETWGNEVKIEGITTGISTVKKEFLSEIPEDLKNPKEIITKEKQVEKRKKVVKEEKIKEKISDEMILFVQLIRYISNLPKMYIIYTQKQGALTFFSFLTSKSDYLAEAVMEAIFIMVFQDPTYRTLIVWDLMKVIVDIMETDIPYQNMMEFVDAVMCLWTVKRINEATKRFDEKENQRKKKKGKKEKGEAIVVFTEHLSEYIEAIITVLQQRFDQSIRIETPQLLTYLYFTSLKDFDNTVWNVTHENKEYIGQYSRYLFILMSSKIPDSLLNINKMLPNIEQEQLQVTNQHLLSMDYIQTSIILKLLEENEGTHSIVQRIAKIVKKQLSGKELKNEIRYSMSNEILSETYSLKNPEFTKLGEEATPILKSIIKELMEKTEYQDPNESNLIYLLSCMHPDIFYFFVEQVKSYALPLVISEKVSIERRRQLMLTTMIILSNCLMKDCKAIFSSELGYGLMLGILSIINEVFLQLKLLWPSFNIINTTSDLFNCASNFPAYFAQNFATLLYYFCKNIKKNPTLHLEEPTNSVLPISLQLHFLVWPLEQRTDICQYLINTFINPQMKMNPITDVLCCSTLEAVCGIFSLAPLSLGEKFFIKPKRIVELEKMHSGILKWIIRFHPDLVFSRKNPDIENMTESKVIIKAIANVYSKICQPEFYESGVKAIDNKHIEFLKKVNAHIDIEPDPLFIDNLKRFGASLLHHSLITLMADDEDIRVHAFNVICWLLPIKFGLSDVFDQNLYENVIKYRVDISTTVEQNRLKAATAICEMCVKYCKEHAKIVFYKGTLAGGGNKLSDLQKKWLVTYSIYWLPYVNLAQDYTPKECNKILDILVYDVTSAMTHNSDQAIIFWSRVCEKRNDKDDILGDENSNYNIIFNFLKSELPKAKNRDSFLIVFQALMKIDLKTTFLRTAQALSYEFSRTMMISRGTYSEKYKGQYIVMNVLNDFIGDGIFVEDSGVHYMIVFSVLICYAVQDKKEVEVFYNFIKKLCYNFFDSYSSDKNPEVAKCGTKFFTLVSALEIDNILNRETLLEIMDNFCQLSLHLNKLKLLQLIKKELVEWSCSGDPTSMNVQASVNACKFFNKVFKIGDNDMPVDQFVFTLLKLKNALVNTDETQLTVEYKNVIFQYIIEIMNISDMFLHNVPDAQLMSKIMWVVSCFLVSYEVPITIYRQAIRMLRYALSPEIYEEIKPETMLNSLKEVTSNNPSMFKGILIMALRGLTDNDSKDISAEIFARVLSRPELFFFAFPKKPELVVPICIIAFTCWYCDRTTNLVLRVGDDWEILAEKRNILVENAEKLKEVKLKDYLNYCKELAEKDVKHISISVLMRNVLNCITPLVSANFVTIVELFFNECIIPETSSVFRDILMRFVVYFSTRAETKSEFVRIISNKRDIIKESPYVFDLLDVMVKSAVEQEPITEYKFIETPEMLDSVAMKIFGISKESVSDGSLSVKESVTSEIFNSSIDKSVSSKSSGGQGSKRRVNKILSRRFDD
UniProt C4MA07: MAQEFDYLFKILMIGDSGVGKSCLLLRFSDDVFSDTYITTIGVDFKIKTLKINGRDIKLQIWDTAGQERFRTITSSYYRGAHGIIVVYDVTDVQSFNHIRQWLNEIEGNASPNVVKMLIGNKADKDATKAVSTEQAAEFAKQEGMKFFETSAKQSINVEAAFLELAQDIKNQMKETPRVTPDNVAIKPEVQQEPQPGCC
UniProt C4MAI6: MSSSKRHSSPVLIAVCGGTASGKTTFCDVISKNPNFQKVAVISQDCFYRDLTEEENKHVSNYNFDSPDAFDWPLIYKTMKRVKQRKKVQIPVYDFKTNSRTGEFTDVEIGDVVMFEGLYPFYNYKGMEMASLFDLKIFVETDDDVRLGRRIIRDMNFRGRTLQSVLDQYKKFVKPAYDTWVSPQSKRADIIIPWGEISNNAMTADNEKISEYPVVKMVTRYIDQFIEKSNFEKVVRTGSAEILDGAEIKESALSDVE
UniProt C4LY69: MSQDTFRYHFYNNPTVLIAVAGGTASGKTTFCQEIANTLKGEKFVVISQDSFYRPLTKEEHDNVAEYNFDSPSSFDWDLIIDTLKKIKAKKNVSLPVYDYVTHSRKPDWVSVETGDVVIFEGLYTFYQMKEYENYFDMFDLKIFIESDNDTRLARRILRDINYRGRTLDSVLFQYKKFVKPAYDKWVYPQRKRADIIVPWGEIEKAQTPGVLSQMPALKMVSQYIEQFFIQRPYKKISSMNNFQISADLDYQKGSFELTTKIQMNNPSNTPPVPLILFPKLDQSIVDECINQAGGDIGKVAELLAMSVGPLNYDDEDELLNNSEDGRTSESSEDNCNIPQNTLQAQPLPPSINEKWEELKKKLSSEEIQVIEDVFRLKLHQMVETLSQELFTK

B1: E3 ubiquitin-protein ligase listerin (EHI_190430) (enzyme, UniProt C4M9T6 1-1407)
chain: MISASSVLNDETLFLLKKFQKSNETTIIKTLDELKRNILLEPFISTKKEQQAFSLHFSNIFTTLSTHKSSNVRLNLFICLSDGILQSPQGKNMISFCISEIIPWWLLCCHDSVKEISEAAKKALNILSFEGRQKVITSNISQILRLVSSNEYDLISRMGCLATILPNINISKLSSYGKSHLENSIKSLIESYGSITNEVYFSSIDAALITCNFIVMERFESLKNIIVKTIDELQPFSKYSKQLFLCITSLLENGAIFNEEFYNKIIQYISTACLGSLYVFPTLKRLLPFIKEKELEKKYIEGVFKAIGDSHIRGPQRAVVILHYFESIKYFKYTNINELIEIMKLLLNDPGSIMIDSGYSSMGIFLTKLNETKEIQGVLSSAVTYLRRSEEKEYLIHLNCMKFIVDKCIKNEFTQGFSYDLLKTIIDKNENDHFFNDNEIDLIIFILQKYPATEEVHQMIVRQFQHIFMLSIEENINEFDIINDTVEINDEFLSYVIKMEDLLIQSISFEPSTSIGYLLNQMFFNLFPKHYALNHLNYLRLFINKLKEQQFIQTIVLQINPLIQLLLHSFKSSKDIVQSIISISPRLLTPQQLTELLFTNSINHLQVLLNVDLINYLIKSTINSKELLLHIIKSITSPDIFLPIHQPIRNVLLKLLPSLISYIGIEPIHEMLKSLLLSPNCTSFCISLTSEIPPLRNLLINDIKLLLPLSSFISLIPSYAQNIKSPLLIPMPFINSSEYPHYNNTLSLLVKLYHLNNEEIKEDNEYIEYWLFDSYQKLTNRISVEIPHLQQLILLQYLFKKNEIEQYLIFHIINQLSSWINLSKESIEYLAHLFDSSTSYSIRFFLSTYLSPLHIDWLEKKVNIIIKKFFMVNTQSDPQGLKELSILYPLIFFPTHLKMVFKYIFSLEITSELELPFLHILHYVFSSSCSLCFESLENEESLSLIYQFLLKILTSSVSSNLMKRGALQVSQILITHSLPPKLLTSESEGIQLSFKISLIDFIVNSIINKSNTQLISELLLQTDLLAEIDFMSDSMRKYIPELFKILKGKDSIIVKICTGYLIGASMNFKSDETFIDFDDNEQQKYHPLPPSLEEYLDKAIESFSQFNTLNKTTLIIFILGMLRKIKDSSTEYRSWIVAYLQAHHFELFINNLYTLLPDQHVPLTLSSVLSLLHSFINGEDEDENQLLTKQNENQILNILASYCMFVIVQSFPNVVRQWCLSLRKSAPKMVKKFFERNICPFILQEEVQKILSWKETDDFILRLQLDGKAVTVVYKNDELVFESQLIFPSTYPLDMITVNVASNKVSVSEAKSHLYKRMLTMNLMTRDLGIIDACLLWKQQLDRQFDNSDACPICYSLFYLRTTTIPNVACKCCRKKFHKQCIFGWFRSTGRHDCPLCTRNFYGENKN

Molecular target: T1, HA-EhRacM (EhRacM tagged with HA at the N-terminus) (Entamoeba histolytica)
Experiment: affinity purification with mass spectrometry; trophozoites cross-linked with DSP (RT, 30 min), lysed in 50 mM Tris-HCl pH 7.5, 150 mM NaCl, 1% Triton X-100; precleared with Protein G Sepharose; HA-tagged bait captured on anti-HA agarose (clone HA-7) at 4°C for 3.5 h, eluted with HA peptide …; compared with the pEhEx-HA mock strain

Molecule | binding
Rho small GTPase (EHI_146180) (from UniProt C4M3R0) | binds
Rho small GTPase (EHI_181250) (from UniProt Q24814 1-196) | binds
RING-type domain-containing protein (EHI_013240) (from UniProt C4LX90 1-2020) | binds
Rab family GTPase (EhRab1B) (EHI_146510) (from UniProt C4MA07 1-199) | binds
Uridine/cytidine kinase (EHI_196580) (from UniProt C4MAI6) (enzyme) | binds
Rho GDI (EHI_185440) | binds
Uridine/cytidine kinase (EHI_051730) (from UniProt C4LY69) (enzyme) | binds

Molecular target: T1, HA-EhRacM (EhRacM tagged with HA at the N-terminus) (Entamoeba histolytica)
Experiment: as above
Remark: another data set of the same source

Molecule | binding
B1 | binds

Reference: article PMC11560011
